PubChem BioAssay AID504774 – Drosophila RNAi Screening Center – 2011
The deposit covers about 23,000 reagents; shown is an unselected part of those with a known target gene and a result. 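Values are quantile-normalised luminescence on an arbitrary scale; higher means more cells surviving MMS.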 Names joined by + are all predicted targets of the reagent. Not all columns of the deposit are shown. No sequences are given here.

- Purpose: 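Knock-downs that shift viability of MMS-exposed cells relative to untreated ones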 (primary screen)
- Cell system: Drosophila Kc167 cells
- Reagent: long dsRNA against Drosophila genes, about 0.25 µg dsRNA per well
- Time to read-out: about 6 days: 3 days knock-down, then 3 days with or without MMS
- Treatment: methyl methanesulphonate 0.004% (w/v) for 3 days after knock-down
- Read-out: 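ATP-dependent luminescence as a measure of live cells in MMS-exposed wells, quantile normalised within each plate, with replicate values also given as a mean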
- Reading the numbers: mean viability with MMS: higher = more surviving cells after MMS

The opening 8 records, ahead of the listing:
gene knocked down | dsRNA | mean viability with MMS
CG14689 | DRSC14912 | 3.53e6
brm (brahma) | DRSC11330 | 3.33e6
AGBE (1,4-Alpha-Glucan Branching Enzyme) | DRSC06861 | 3.14e6
RpL34b (Ribosomal protein L34b) | DRSC16475 | 3.46e6
hh (hedgehog) | DRSC16965 | 3.57e6
CG32588 | DRSC22285 | 3.54e6
CG5399 | DRSC15791 | 3.55e6
Eip93F (Ecdysone-induced protein 93F) | DRSC13527 | 3.52e6

The listing, from the start:
gene knocked down | dsRNA | mean viability with MMS
CG14689 | DRSC14912 | 3.53e6
brm (brahma) | DRSC11330 | 3.33e6
AGBE (1,4-Alpha-Glucan Branching Enzyme) | DRSC06861 | 3.14e6
RpL34b (Ribosomal protein L34b) | DRSC16475 | 3.46e6
hh (hedgehog) | DRSC16965 | 3.57e6
CG32588 | DRSC22285 | 3.54e6
CG5399 | DRSC15791 | 3.55e6
Eip93F (Ecdysone-induced protein 93F) | DRSC13527 | 3.52e6
Eip93F (Ecdysone-induced protein 93F) | DRSC16661 | 3.37e6
Eip93F (Ecdysone-induced protein 93F) | DRSC21754 | 3.69e6
Eip93F (Ecdysone-induced protein 93F) | DRSC23072 | 2.38e6
cos (costa) | DRSC07598 | 3.74e6
Dll (Distal-less) | DRSC04610 | 3.52e6
CG17359 | DRSC10265 | 3.41e6
CG14543 | DRSC14887 | 3.27e6
Jhe (Juvenile hormone esterase) | DRSC07174 | 3.61e6
Tsp33B (Tetraspanin 33B) | DRSC02418 | 3.16e6
CG13510 | DRSC04152 | 3.85e6
lncRNA:CR32661 (long non-coding RNA:CR32661) | DRSC19794 | 3.55e6
CG12464 | DRSC06156 | 3.51e6
CG33342 (HDC15381) | DRSC13662 | 3.47e6
Drep4 (DNA fragmentation factor-related protein 4) | DRSC03408 | 3.61e6
CG12024 | DRSC08229 | 3.56e6
CG33136 | DRSC05744 | 3.45e6
tipE (temperature-induced paralytic E) | DRSC08738 | 3.57e6
CG42346 | DRSC20622 | 3.52e6
CG42346 | DRSC20644 | 3.51e6
tsg (twisted gastrulation) | DRSC20380 | 3.58e6
CG6356 | DRSC16026 | 3.59e6
CG4269 | DRSC04457 | 3.96e6
CG15753 (retired record) | DRSC19718 | 2.80e6
CG15753 (retired record) | DRSC22985 | 3.55e6
CG15717 | DRSC19684 | 3.68e6
Lrt (Leucine-rich tendon-specific protein) | DRSC06045 | 3.64e6
CG15286 | DRSC01907 | 3.60e6
CG5577 | DRSC10519 | 3.58e6
Rpp14b (Ribonuclease P/MRP subunit p14 b) | DRSC15063 | 3.41e6
CG8630 | DRSC16441 | 3.40e6
Cmtr1 (Cap methyltransferase 1) | DRSC18400 | 3.58e6
bond (james bond) | DRSC16135 | 3.47e6
CtsB (Cathepsin B) | DRSC19361 | 3.61e6
CG6951 | DRSC10755 | 3.37e6
Nrk (Neurospecific receptor kinase) | DRSC07480 | 3.63e6
CG7149 | DRSC03016 | 3.54e6
Or47b (Odorant receptor 47b) | DRSC07492 | 3.69e6
CNT1 + CG13742 | DRSC06413 | 3.67e6
Atg16 (Autophagy-related 16) | DRSC15052 | 3.57e6
Atg16 (Autophagy-related 16) | DRSC15300 | 3.60e6
Atg16 (Autophagy-related 16) | DRSC15375 | 3.61e6
PCID2 (PCI domain-containing protein 2) | DRSC10822 | 3.44e6
CG34253 | DRSC09531 | 3.49e6
CG2818 | DRSC00540 | 3.72e6
CG15824 | DRSC00473 | 3.60e6
eIF1 (eukaryotic translation initiation factor 1) | DRSC08520 | 3.45e6
CG9717 | DRSC16543 | 3.44e6
Sgf29 (SAGA-associated factor 29kDa) | DRSC04076 | 3.76e6
CG12259 | DRSC14486 | 3.56e6
CG12259 | DRSC23281 | 3.55e6
CycJ (Cyclin J) | DRSC08653 | 3.63e6
rdgB (retinal degeneration B) | DRSC20365 | 1.81e6
CG14253 | DRSC14748 | 3.57e6
CG14397 | DRSC02381 | 3.60e6
Acp36DE (Accessory gland protein 36DE) | DRSC01860 | 3.42e6
CG10254 | DRSC14153 | 3.32e6
Vm26Ab (Vitelline membrane 26Ab) | DRSC03473 | 3.66e6
CG32032 | DRSC08961 | 3.48e6
CG42539 (retired record) | DRSC13691 | 3.67e6
CG42539 (retired record) | DRSC21639 | 3.59e6
